Reference: patent US20230279233A1, “ATROROSINS AS FOOD COLORS” (Chromologics ApS, priority 2020, published 2023)

Experiment: Coloring of hard and soft candy, CIEL*a*b*

Structure (SMILES): CCCCCCCC(=O)C1=C2C=C3C=C(/C=C\C(=O)O)N([C@@H](CCC(=O)O)C(=O)O)C=C3C(=O)C2(C)OC1=O (stereo partly drawn) [Atrorosin-E]
- A (CIEL*a*b* red and green a*) (Hard candy 1, 43.75 PPM): 39.83
- B (CIEL*a*b* yellow and blue b*) (Hard candy 1, 43.75 PPM): 31.99
- L (CIEL*a*b* lightness L*) (Hard candy 1, 43.75 PPM): 56.32
- A (CIEL*a*b* red and green a*) (Hard candy 2, 87.5 PPM): 51.19
- B (CIEL*a*b* yellow and blue b*) (Hard candy 2, 87.5 PPM): 34.42
- L (CIEL*a*b* lightness L*) (Hard candy 2, 87.5 PPM): 39.82
- A (CIEL*a*b* red and green a*) (Soft candy 1, 8.75 PPM): 21.22
- B (CIEL*a*b* yellow and blue b*) (Soft candy 1, 8.75 PPM): 6.14
- L (CIEL*a*b* lightness L*) (Soft candy 1, 8.75 PPM): 51.88
- A (CIEL*a*b* red and green a*) (Soft candy 2, 87.5 PPM): 15.92
- B (CIEL*a*b* yellow and blue b*) (Soft candy 2, 87.5 PPM): 4.69
- L (CIEL*a*b* lightness L*) (Soft candy 2, 87.5 PPM): 25.95
